Results on 2 substances are retold here after paper doi:10.1101/256560.

Sequences of proteins named here, by UniProt entry; tags and fusion partners are left off.
UniProt Q2FYI5, whole entry: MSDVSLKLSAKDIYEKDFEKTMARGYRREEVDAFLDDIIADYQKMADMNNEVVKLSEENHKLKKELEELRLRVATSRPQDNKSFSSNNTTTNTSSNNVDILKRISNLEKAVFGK

These are yes or no findings as the source states them, for the method shown. Binding can be weak; no strength is given.

Common to all, as to assay: two-hybrid
The target of test [1] is T1, EzrA (S. aureus) (UniProt Q2FXK8).
T1 sequence: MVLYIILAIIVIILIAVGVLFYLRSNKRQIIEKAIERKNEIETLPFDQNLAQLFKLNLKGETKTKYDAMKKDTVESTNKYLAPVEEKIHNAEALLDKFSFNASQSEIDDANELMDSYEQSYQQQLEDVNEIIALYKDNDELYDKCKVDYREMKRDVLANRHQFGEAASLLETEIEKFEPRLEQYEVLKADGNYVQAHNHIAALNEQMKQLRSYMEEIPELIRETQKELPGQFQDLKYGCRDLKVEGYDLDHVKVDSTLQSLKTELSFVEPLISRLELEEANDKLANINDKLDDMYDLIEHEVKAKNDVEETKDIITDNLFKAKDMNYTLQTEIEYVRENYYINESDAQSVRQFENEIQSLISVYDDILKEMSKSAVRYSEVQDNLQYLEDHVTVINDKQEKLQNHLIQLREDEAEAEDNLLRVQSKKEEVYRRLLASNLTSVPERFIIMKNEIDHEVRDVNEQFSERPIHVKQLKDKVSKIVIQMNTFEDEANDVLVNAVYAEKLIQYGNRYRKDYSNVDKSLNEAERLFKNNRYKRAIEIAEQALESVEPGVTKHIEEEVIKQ

Test [2] deals with GpsB (S. aureus) (UniProt Q2FYI5).
Test [3] has as its target CozEb (S. aureus SH1000) (UniProt Q2G2N2).
For test [4], the target named is T2, EzrA^Spn (S. pneumoniae) (UniProt Q8DQE5).
T2 sequence: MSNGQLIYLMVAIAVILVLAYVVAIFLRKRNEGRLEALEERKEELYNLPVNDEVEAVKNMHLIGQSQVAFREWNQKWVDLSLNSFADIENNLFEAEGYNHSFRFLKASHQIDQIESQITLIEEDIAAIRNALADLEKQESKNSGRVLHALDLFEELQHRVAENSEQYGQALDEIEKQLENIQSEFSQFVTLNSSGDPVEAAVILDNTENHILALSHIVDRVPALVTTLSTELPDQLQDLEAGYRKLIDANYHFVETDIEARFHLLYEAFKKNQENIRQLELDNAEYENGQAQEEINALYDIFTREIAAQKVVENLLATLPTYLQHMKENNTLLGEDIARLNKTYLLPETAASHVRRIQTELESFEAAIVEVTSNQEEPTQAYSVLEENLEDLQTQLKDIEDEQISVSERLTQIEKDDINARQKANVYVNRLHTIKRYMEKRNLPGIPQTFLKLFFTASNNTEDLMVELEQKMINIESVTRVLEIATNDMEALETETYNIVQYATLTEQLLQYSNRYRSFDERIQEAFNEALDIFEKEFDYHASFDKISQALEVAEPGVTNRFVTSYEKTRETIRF

With CozEa (from UniProt Q2FZQ2), the binding entry in test [1], in test [2], in test [3] and in test [4] was “binds” each time.

With CozEb (from UniProt Q2G2N2), the results for the binding entry in test [1], in test [2] and in test [4] were “binds”, “no binding” and “binds”, respectively.
